# Measurements as given in the supplement of paper PMC8728848.
# This is one part of the list.
# Legend:
# Experiment in all cases: glycan array binding signal (z-score within array); higher = stronger binding
# Conditions in all cases: glycan notation: IUPAC condensed, linker removed
# [1] = molecular target: Gal3S(b1-4)Glc
# In short: (§1)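 From the Consortium for Functional Glycomics database, 3228 arrays were curated, keeping only those whose protein sequence was available. Binding is given as a within-array Z-score averaged across arrays sharing a protein sequence and across linkers. Negative Z-scores can be read as non-binding.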
# [2] = molecular target: Gal3S(b1-4)Glc6S
# In short: as §1
# [3] = molecular target: Gal3S(b1-4)GlcNAc
# In short: as §1
# [4] = molecular target: Gal3S(b1-4)[Fuc(a1-3)]Glc6S
# In short: as §1
# [5] = molecular target: Gal3S(b1-4)[Fuc(a1-3)]GlcNAc
# In short: as §1
# [6] = molecular target: Gal3S(b1-4)[Fuc(a1-3)]GlcNAc6S
# In short: as §1
# [7] = molecular target: Gal3S4S(b1-4)GlcNAc
# In short: as §1
# [8] = molecular target: Gal3S6S(b1-4)GlcNAc
# In short: as §1
# [9] = molecular target: Gal3S6S(b1-4)GlcNAc6S
# In short: as §1
# [10] = molecular target: Gal4S(b1-4)GlcNAc
# In short: as §1
# [11] = molecular target: Gal4S6S(b1-4)GlcNAc
# In short: as §1
# [12] = molecular target: Gal6P(b1-4)GlcNAc
# In short: as §1
# [13] = molecular target: Gal6S(b1-3)GlcNAc
# In short: as §1
# [14] = molecular target: Gal6S(b1-3)GlcNAc6S
# In short: as §1
# [15] = molecular target: Gal6S(b1-4)Glc
# In short: as §1
# [16] = molecular target: Gal6S(b1-4)Glc6S
# In short: as §1
# [17] = molecular target: Gal6S(b1-4)GlcNAc
# In short: as §1
# [18] = molecular target: Gal6S(b1-4)GlcNAc6S
# In short: as §1
# [19] = molecular target: GalNAc(a1-3)Gal
# In short: as §1
# [20] = molecular target: GalNAc(a1-3)GalNAc
# In short: as §1
# [21] = molecular target: GalNAc(a1-3)GalNAc(b1-3)Gal(a1-4)Gal(b1-4)Glc
# In short: as §1
# [22] = molecular target: GalNAc(a1-3)GalNAc(b1-3)Gal(a1-4)Gal(b1-4)GlcNAc
# In short: as §1
# [23] = molecular target: GalNAc(b1-3)Gal
# In short: as §1
# [24] = molecular target: GalNAc(b1-3)Gal(a1-4)Gal(b1-4)GlcNAc
# In short: as §1
# [25] = molecular target: GalNAc(b1-3)Gal(a1-4)Gal(b1-4)GlcNAc(b1-3)Gal(b1-4)Glc
# In short: as §1
# [26] = molecular target: GalNAc(b1-3)Gal(a1-6)Gal(b1-4)Glc
# In short: as §1
# [27] = molecular target: GalNAc(b1-3)GalNAc
# In short: as §1
# [28] = molecular target: GalNAc(b1-3)GlcNAc
# In short: as §1
# [29] = molecular target: GalNAc(b1-4)Gal(b1-4)Glc
# In short: as §1
# [30] = molecular target: GalNAc(b1-4)GlcNAc
# In short: as §1
binder,measurement,setting,value
PX14343F-bfa-562-20-562 (Bacteroides fragilis) (protein) CDDFLDSFPQDTVTNENFWKSKEDADKVLVDIYASLLPKDAIFFDEAMSDNAYLVWDWWGGAQQVANGSYTTSGEIPTNRWNGSYEVIRKCWFLLEGIEKIEDISEQDKNKIIGETYFMLAYNYYVLTSYFGDVPLVTKTLAIPESKQLVRTPKAEVVDYAINKLKEAAVMLEGLSQEKGRVTADACRFLIARMYLYNGDYSNVLETVKLLEGKYQLYREGDTPYEDLFSGVAENSCEVILSVVCDKRVGEIYTSHGGNGIMLLKGITGEDPYRGVTPSGSLVDAYPMADGRLIHEAGSSYDPKKPYEGRDPRFYQSIVYPTGQIKYLDVETGTVKERLYDPEDPTTVPEHQYNYSQPSATGYMWNKYIDYSVYAMNSVWDCTNDIIVFRYADVLLMKAEALLQTKGESAKEEVCNLIDQLRDRCSCGRVHRENYNSKDELMELLKNERRIELANEGLRYMDLIRWKDAEKNTIVTGVGLTGQMYGAYMRKDGVGKDDKTVDVDNTPRRYIETRYFNASKGYLFPIPQKERDLNPNLTQNPNW,glycan array binding signal (z-score),[1],-0.546
same,glycan array binding signal (z-score),[2],-0.513
same,glycan array binding signal (z-score),[3],0.086
same,glycan array binding signal (z-score),[4],1.19
same,glycan array binding signal (z-score),[5],0.472
same,glycan array binding signal (z-score),[6],0.032
same,glycan array binding signal (z-score),[7],0.242
same,glycan array binding signal (z-score),[8],-0.271
same,glycan array binding signal (z-score),[9],0.275
same,glycan array binding signal (z-score),[10],-0.2
same,glycan array binding signal (z-score),[11],-0.533
same,glycan array binding signal (z-score),[12],-0.538
same,glycan array binding signal (z-score),[13],-0.449
same,glycan array binding signal (z-score),[14],-0.301
same,glycan array binding signal (z-score),[15],-0.233
same,glycan array binding signal (z-score),[16],1.31
same,glycan array binding signal (z-score),[17],0.658
same,glycan array binding signal (z-score),[18],0.35
same,glycan array binding signal (z-score),[19],-0.48
same,glycan array binding signal (z-score),[20],0.306
same,glycan array binding signal (z-score),[21],-0.145
same,glycan array binding signal (z-score),[22],0.154
same,glycan array binding signal (z-score),[23],-0.381
same,glycan array binding signal (z-score),[24],0.292
same,glycan array binding signal (z-score),[25],0.676
same,glycan array binding signal (z-score),[26],-0.256
same,glycan array binding signal (z-score),[27],-0.415
same,glycan array binding signal (z-score),[28],-0.444
same,glycan array binding signal (z-score),[29],0.248
same,glycan array binding signal (z-score),[30],0.305

# Quoted from the results shown for reference:
binder,measurement,setting,value
PX14343F-bfa-562-20-562 (Bacteroides fragilis) (protein) CDDFLDSFPQDTVTNENFWKSKEDADKVLVDIYASLLPKDAIFFDEAMSDNAYLVWDWWGGAQQVANGSYTTSGEIPTNRWNGSYEVIRKCWFLLEGIEKIEDISEQDKNKIIGETYFMLAYNYYVLTSYFGDVPLVTKTLAIPESKQLVRTPKAEVVDYAINKLKEAAVMLEGLSQEKGRVTADACRFLIARMYLYNGDYSNVLETVKLLEGKYQLYREGDTPYEDLFSGVAENSCEVILSVVCDKRVGEIYTSHGGNGIMLLKGITGEDPYRGVTPSGSLVDAYPMADGRLIHEAGSSYDPKKPYEGRDPRFYQSIVYPTGQIKYLDVETGTVKERLYDPEDPTTVPEHQYNYSQPSATGYMWNKYIDYSVYAMNSVWDCTNDIIVFRYADVLLMKAEALLQTKGESAKEEVCNLIDQLRDRCSCGRVHRENYNSKDELMELLKNERRIELANEGLRYMDLIRWKDAEKNTIVTGVGLTGQMYGAYMRKDGVGKDDKTVDVDNTPRRYIETRYFNASKGYLFPIPQKERDLNPNLTQNPNW,glycan array binding signal (z-score),[4],1.19
same,glycan array binding signal (z-score),[5],0.472
